Results are given in words; binding and its absence hold for the method and conditions named. Some binding calls cover weakened binding; strength is not graded here.
Assays:
[1] = target: human bek (bacterially expressed kinase) fibroblast growth factor receptor (human) (UniProt P21802); assay: Scatchard analysis of [125I]kFGF saturation binding to bek13 cells
[2] = target: human bek (bacterially expressed kinase) fibroblast growth factor receptor (human) (UniProt P21802); assay: covalent crosslinking of [125I]kFGF to intact NBek13 cells with disuccinimidyl suberate, SDS-PAGE
[3] = target: human flg (fms-like gene) fibroblast growth factor receptor (human) (UniProt P11362); assay: covalent crosslinking of [125I]kFGF to intact NFlg26 cells with disuccinimidyl suberate, SDS-PAGE

Protein sequences, listed by entry. Tags and fused reporters are not part of them. Residues count along the entry.
UniProt P21802, residues 22-821: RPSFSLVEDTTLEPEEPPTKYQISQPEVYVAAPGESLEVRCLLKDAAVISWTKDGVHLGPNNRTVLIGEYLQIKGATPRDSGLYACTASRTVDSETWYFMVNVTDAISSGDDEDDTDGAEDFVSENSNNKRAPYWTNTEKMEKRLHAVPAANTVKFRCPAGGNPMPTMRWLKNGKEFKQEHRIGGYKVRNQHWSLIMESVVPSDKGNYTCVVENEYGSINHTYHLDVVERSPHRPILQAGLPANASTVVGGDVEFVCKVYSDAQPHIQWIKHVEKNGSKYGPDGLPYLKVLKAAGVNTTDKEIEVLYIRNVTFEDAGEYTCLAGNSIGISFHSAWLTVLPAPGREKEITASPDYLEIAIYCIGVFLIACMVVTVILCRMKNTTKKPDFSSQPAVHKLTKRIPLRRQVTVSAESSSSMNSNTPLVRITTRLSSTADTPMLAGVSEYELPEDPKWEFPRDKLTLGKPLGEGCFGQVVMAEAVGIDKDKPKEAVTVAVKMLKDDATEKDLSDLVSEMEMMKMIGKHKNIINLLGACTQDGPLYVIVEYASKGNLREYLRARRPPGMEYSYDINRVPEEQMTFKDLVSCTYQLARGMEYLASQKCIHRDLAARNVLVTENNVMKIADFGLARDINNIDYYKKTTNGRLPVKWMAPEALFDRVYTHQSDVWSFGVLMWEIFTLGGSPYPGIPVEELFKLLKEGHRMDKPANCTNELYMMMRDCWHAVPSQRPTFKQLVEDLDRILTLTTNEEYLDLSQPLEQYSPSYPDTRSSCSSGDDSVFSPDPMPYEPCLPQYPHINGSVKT
UniProt P11362, residues 22-822: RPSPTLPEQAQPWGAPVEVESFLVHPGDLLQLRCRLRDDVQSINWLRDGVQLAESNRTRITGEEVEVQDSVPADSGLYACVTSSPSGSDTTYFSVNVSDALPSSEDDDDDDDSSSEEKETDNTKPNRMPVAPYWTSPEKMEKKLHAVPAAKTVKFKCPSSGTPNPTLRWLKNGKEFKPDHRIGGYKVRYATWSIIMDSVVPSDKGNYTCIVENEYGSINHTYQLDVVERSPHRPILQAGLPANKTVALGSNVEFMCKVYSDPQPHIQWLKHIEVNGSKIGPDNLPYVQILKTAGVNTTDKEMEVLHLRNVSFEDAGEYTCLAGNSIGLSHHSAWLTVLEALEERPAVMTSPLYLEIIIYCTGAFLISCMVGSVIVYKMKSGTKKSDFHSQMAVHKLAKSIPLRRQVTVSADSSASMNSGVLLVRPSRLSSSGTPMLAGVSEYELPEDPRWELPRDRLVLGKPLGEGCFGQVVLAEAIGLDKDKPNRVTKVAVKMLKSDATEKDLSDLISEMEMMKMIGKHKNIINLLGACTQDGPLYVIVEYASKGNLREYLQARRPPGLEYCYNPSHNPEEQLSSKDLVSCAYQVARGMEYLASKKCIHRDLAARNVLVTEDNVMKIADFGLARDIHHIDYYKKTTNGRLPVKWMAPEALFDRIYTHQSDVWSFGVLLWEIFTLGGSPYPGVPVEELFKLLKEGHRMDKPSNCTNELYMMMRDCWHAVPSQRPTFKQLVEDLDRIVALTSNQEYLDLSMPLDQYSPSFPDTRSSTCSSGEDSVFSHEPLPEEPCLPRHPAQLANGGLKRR

binding [1]: binds | binding [2]: binds | binding [3]: binds
B1: human recombinant kFGF (ligand, UniProt P08620 31-206, looked up)
chain: APTAPNGTLEAELERRWESLVALSLARLPVAAQPKEAAVQSGAGDYLLGIKRLRRLYCNVGIGFHLQALPDGRIGGAHADTRDSLLELSPVERGVVSIFGVASRFFVAMSSKGKLYGSPFFTDECTFKEILLPNNYNAYESYKYPGMFIALSKNGKTKKGNRVSPTMKVTHFLPRL
modifications: radioiodinated (125I) by Enzymobeads

Source: US6344546
